Reference: PubChem BioAssay AID493014 (National Center for Advancing Translational Sciences (NCATS), 2011)
The other results are listed elsewhere or left out. Shown are side measurements of this screen, not its main read-out; they come without a call. The list favours compounds with an active or inconclusive main result. Potencies come from curve fits of mixed quality, noted in brackets.

Experiment: qHTS Assay to Find Inhibitors of Chronic Active B-Cell Receptor Signaling
Conditions: ABC-DLBCL IkBa-CBG/CBR reporter, luminescence ratio (green luciferase fused to IkBa over red control in TMD8 lymphoma cells), 4 h
Procedure, shortened: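 Doxycycline induced both beetle luciferases in TMD8 lymphoma cells; IKK-driven degradation limits the IkappaBalpha-fused green signal, while red luminescence normalises for cell number and nonspecific effects. Compounds tested up to 46 uM, 4 hrs.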

[1] = measured here: CBR red luminescence, cell number
[2] = measured here: IkBa-CBG green luminescence

SMILES	AC50 [1]	AC50 [2]
O=C(c1ccncc1)N1CCN(C(=O)c2ccncc2)CC1	29.1 µM [falling, single point]	
COC(=O)CSc1nnc(-c2ccc(OC)cc2OC)o1	20.6 µM [rising, single point]	
CC1(C)CC(=O)C(C=Nc2ccc3c(c2)OCO3)=C(O)C1	5.8 µM [rising, full curve]	
CCC(=O)Nc1cccc(C2=NOC3(C2)C[C@@H](C(N)=O)N(C(=O)C(c2ccccc2)c2ccccc2)C3)c1 (stereo partly specified)	6.31 µM [falling, single point]	
CSc1cccc(NC(=O)CCn2c(=O)c3cccn3c3cccnc32)c1	6.31 µM [rising, partial curve, poor fit]	
CC(C)Nc1ncnc2c1cnn2Cc1ccc(Cl)cc1	5.01 µM [rising, single point]	
Cc1ccccc1CC1(CO)CCCN(Cc2cn[nH]c2-c2ccccc2)C1 (stereo unspecified)	6.31 µM [rising, single point]	
c1ccc(-c2oc3ncnc(N4CCOCC4)c3c2-c2ccccc2)cc1	2.59 µM [rising, partial curve]	1.64 µM [falling, partial curve, poor fit]
CC(C)(C)OC(=O)NCc1ccc(NC(=O)c2nc[nH]c2C(=O)N[C@@H](Cc2ccccc2)C(=O)OC(C)(C)C)cc1	1 µM [rising, partial curve, poor fit]	
COc1ccccc1Nc1c2ccccc2nc2ccccc12	8.91 µM [falling, partial curve]	
COC(=O)c1cc(=O)nc2sc3ccccc3n12	7.08 µM [rising, partial curve, poor fit]	
COc1ccc(C2=NN(CC(=O)Nc3ccccc3C)C(=O)CC2)cc1	22.4 µM [rising, single point]	
Cc1nn2c(N)c(-c3ccccc3)cnc2c1-c1ccccc1	1 µM [rising, full curve, poor fit]	
Cc1ccc(OCC(=O)Nc2ccc3c(c2)OCO3)cc1C	12.6 µM [falling, partial curve]	
CCSC1=NC(C)(C)C=C(/C=C/c2ccc(Cl)cc2Cl)N1	13 µM [falling, partial curve]	14.6 µM [rising, partial curve, poor fit]
O=C(CN1C(=O)c2ccccc2S1(=O)=O)Nc1ccon1	5.8 µM [falling, single point]	
COc1ccc(C(=O)Nc2nnc(SCC(=O)Nc3ccc(NC(C)=O)cc3)s2)c(OC)c1	0.794 µM [falling, full curve, poor fit]	
Cc1cc(NCc2ccccc2)n2ncc(-c3ccccc3)c2n1	12.6 µM [falling, partial curve, poor fit]	
CN(CCc1cn[nH]c1)Cc1nc(Cc2ccccc2)no1	4.47 µM [rising, full curve, poor fit]	
c1ccc(Oc2ncnc3sccc23)cc1	0.398 µM [rising, full curve, poor fit]	
FC(F)(F)c1nc(N2CCCC2)ncc1-c1nnnn1-c1ccc(Cl)cc1	32.6 µM [falling, single point]	

SMILES	AC50 [1]	AC50 [2]
N#C/C(=C(/O)c1ccco1)c1nc2ccccc2[nH]1	2.82 µM [falling, partial curve, poor fit]	
COc1ccccc1NC(=O)CSc1nc2ccccc2c(=O)n1C	3.98 µM [falling, partial curve, poor fit]	
O=c1c(-c2ccc(O)cc2)coc2cc(OC3OC(CO)C(O)C(O)C3O)cc(O)c12 (stereo unspecified)	10.3 µM [rising, partial curve, poor fit]	
Fc1cccc(COc2ccccc2CNc2ccccc2)c1	29.1 µM [rising, single point]	
Cc1ccc2nc(NC(=O)C3CCN(C(=O)c4ccc(F)cc4)CC3)sc2c1	3.16 µM [falling, partial curve, poor fit]	
Cc1ccc2sc(NC(=O)CN3C(=O)CCC3=O)nc2c1C	29.1 µM [falling, single point]	
Cc1[nH]c(C)c(S(=O)(=O)N2CCN(c3ccccc3)CC2)c1C(=O)N1CCCC1	6.31 µM [rising, single point]	
NC(=O)CSc1nc2ccccc2n1Cc1ccccc1	8.2 µM [falling, partial curve, poor fit]	
CCn1cc(Br)c(C(=O)Nc2ccc(OC)cc2)n1	0.58 µM [rising, partial curve, poor fit]	
CCc1ccc(NC(=O)c2cnc(SC)nc2C)cc1	8.91 µM [falling, partial curve, poor fit]	
O=S(=O)(c1cnc(Cl)c(Cl)c1)N1CCCc2ccccc21	2.31 µM [falling, full curve]	29.1 µM [falling, single point]
CNC(=O)CN(c1cc([N+](=O)[O-])ccc1OC)S(C)(=O)=O	2.06 µM [rising, full curve]	
CN(c1nc2ccccc2nc1Cl)S(=O)(=O)c1ccccc1	0.562 µM [rising, partial curve, poor fit]	
CC(C)CNC(=O)c1cccc(NC(=O)CSc2ccc(Cl)cc2)c1	6.51 µM [rising, single point]	
O=C(Nc1ccc2oc(-c3ccncc3)nc2c1)c1cccs1	0.651 µM [rising, full curve, poor fit]	
O=C(CNC(=O)/C(=C\c1ccc(Br)cc1)NC(=O)c1ccccc1)OCc1ccccc1	0.82 µM [falling, full curve, poor fit]	
COC(=O)CN(n1cnnc1)S(=O)(=O)c1ccccc1Cl	2.06 µM [falling, single point]	
Cc1ccc2c(c1)C1CCCC3C1N2CC(=O)N3Cc1ccccc1 (stereo unspecified)	8.2 µM [falling, partial curve, poor fit]	2.59 µM [rising, partial curve, poor fit]
Cc1ccc(NC(=O)c2ccc3c(c2)OCCO3)cc1	11.2 µM [falling, partial curve, poor fit]	
COc1ccc(S(=O)(=O)N2Cc3ccccc3CC2C(=O)Nc2nccs2)cc1OC (stereo unspecified)	1.84 µM [rising, partial curve, poor fit]	
N#Cc1ccccc1CSc1nc2ccc(NC(=O)c3ccccc3C(=O)O)cc2s1	35.5 µM [falling, single point]	

Nothing new here: entries from further up.
SMILES	AC50 [1]	AC50 [2]
Cc1ccc2sc(NC(=O)CN3C(=O)CCC3=O)nc2c1C	29.1 µM [falling, single point]	
Cc1[nH]c(C)c(S(=O)(=O)N2CCN(c3ccccc3)CC2)c1C(=O)N1CCCC1	6.31 µM [rising, single point]	
NC(=O)CSc1nc2ccccc2n1Cc1ccccc1	8.2 µM [falling, partial curve, poor fit]	
CCn1cc(Br)c(C(=O)Nc2ccc(OC)cc2)n1	0.58 µM [rising, partial curve, poor fit]	
CCc1ccc(NC(=O)c2cnc(SC)nc2C)cc1	8.91 µM [falling, partial curve, poor fit]	

Additional records:

SMILES	AC50 [1]	AC50 [2]
O=C(Nc1ccc(F)cc1)c1sc2cc(C(F)(F)F)cnc2c1-c1cccs1	20.6 µM [rising, single point]	
Cc1cccc(Cn2c(N3CCN(c4ccccc4)CC3)nc3c2c(=O)n(C)c(=O)n3C)c1	6.31 µM [falling, single point]	
CC/C=C/C(=O)N1CC2(CC(c3cccc(NC(=O)COc4ccc(Cl)cc4)c3)=NO2)C[C@H]1C(N)=O (stereo partly specified)	31.6 µM [falling, single point]	
Cc1ccccc1Nc1nc(-c2cccnc2)nc2ccccc12	14.1 µM [falling, single point]	
COC(=O)C1=C(C)NC(C)=C(C(=O)OC(C)C)C1c1cccc2nonc12 (stereo unspecified)	12.6 µM [falling, single point]	
O=C(Nc1ccc(Cl)cc1)C1CCCN(C2=NS(=O)(=O)c3ccccc32)C1 (stereo unspecified)	13 µM [rising, partial curve, poor fit]	
CCCc1cc(=O)n2[nH]c(-c3ccc(OC)cc3)nc2n1	5.17 µM [falling, partial curve]	
Cc1ccc(S(=O)(=O)N2C[C@@H]3[C@H]4CC[C@H](C4)[C@@H]3[C@@H](C)[C@@H]2c2ccn(Cc3ccccc3)c2)cc1	29.1 µM [falling, partial curve, poor fit]	
COc1ccc(NC(=O)NCc2ccc3c(c2)OCO3)cc1OC	11.2 µM [falling, single point]	
Cc1cc(NC(=O)C(C)(C)C)no1	16.4 µM [rising, partial curve, poor fit]	
Nc1nc(-c2ccc(-c3ccccc3)cc2)cs1	12.6 µM [falling, partial curve, poor fit]	
CCOC(=O)C1CCN(S(=O)(=O)c2c[nH]c(=O)[nH]c2=O)CC1	20.6 µM [rising, partial curve, poor fit]	
O=C(CNCc1ccc(F)cc1)Nc1ccccc1[N+](=O)[O-]	0.224 µM [rising, full curve, poor fit]	
COc1ccc(N2C(S)=C(C#N)C(=O)NC23CCCCC3)cc1		12.6 µM [falling, single point]
C/C(=N\Nc1ccc(Cl)c(C(=O)O)c1)c1ccc[nH]1	22.4 µM [falling, single point]	
CCOC(=O)[C@H]1[C@H]2COc3ccc(Cl)cc3[C@@H]2N2C(=O)c3ccccc3NC(=O)[C@@]12C	11.6 µM [falling, single point]	
Cc1ccc(C(CC(=O)N2CCNCC2)c2ccccc2)c(O)c1C (stereo unspecified)	0.501 µM [rising, full curve, poor fit]	
O=c1ccc(OCCOc2ccccc2)nn1-c1ccccc1	7.31 µM [rising, partial curve]	
O=C(CN1C(=O)/C(=C\c2ccccc2F)SC1=S)Nc1nc2ccccc2s1	16.4 µM [falling, single point]	
OC(COc1ccc(CNCCc2ccc(C(F)(F)F)cc2)cc1)CN1CCCCC1 (stereo unspecified)	12.6 µM [falling, partial curve, poor fit]	
